Assay results reported in the supplement of paper PMC8256030.
Where “and” joins values, the source holds several entries; their conditions need not be identical. Equal values may be shown once. Where a name gives a salt, the structure may show the parent alone. This is one part of the list. Single values are uncertain here, since repeats match poorly.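 HEK293T cells were given each compound shortly before transfection with a reporter in which red mCherry is followed by the SARS-CoV-2 frameshift element and then GFP in the −1 frame, so GFP appears only after frameshifting.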

Test system: HEK293T
Test: percent viability (nuclei count) relative to control; higher = more viable cells
Conditions: 10 µM; 24 h

Structure (SMILES) | percent viability
O=C(O)c1cc(/N=N/c2ccc(O)c(C(=O)O)c2)ccc1O | 137%
CNC(=O)OCc1cccc(COC(=O)NC)n1 [pyricarbate] | 170%
COc1cc(O)cc(O)c1 [flamenol] | 170%
CO[C@H]1C[C@H](O[C@H]2[C@H](C)[C@@H](O[C@@H]3O[C@H](C)C[C@H](N(C)C)[C@H]3O)[C@@H](C)C[C@@]3(CO3)C(=O)[C@H](C)[C@@H](O)[C@@H](C)[C@@H](C)OC(=O)[C@@H]2C)O[C@@H](C)[C@@H]1O [oleandomycin] | 219%
C[C@H]1c2cccc(O)c2C(O)=C2C(=O)[C@]3(O)C(O)=C(C(N)=O)C(=O)[C@@H](N(C)C)[C@@H]3[C@@H](O)[C@@H]21 | 124%
OCCOCCN1CCN(C(c2ccccc2)c2ccc(Cl)cc2)CC1 (centres undefined) [hydroxyzine] | 179% and 294%
NCCCC(N)(C(=O)O)C(F)F (centres undefined) [eflornithine] | 295% and 241%
CCOC(=O)N1CCC(=C2c3ccc(Cl)cc3CCc3cccnc32)CC1 [loratadine] | 290% and 110%
CC(=O)OCC(=O)[C@@]1(O)CC[C@H]2[C@@H]3CCC4=CC(=O)CC[C@]4(C)[C@H]3C(=O)C[C@@]21C | 88.1%
Cc1ccc(S(=O)(=O)NC(=O)NN2CC3CCCC3C2)cc1 (centres undefined) [gliclazide] | 257% and 256%
CCC(c1ccc(O)cc1)C(CC)C(C)c1ccc(O)cc1 (centres undefined) [benzestrol] | 227%
CCC(C)(Oc1ccc(C2(c3ccc(OC(C)(CC)C(=O)O)cc3)CCCCC2)cc1)C(=O)O (centres undefined) [clinofibrate] | 106%
CCCCCCCCNC(C)C(O)c1ccc(SC(C)C)cc1 (centres undefined) | 205%
Nc1nc(NC2CC2)c2ncn([C@H]3C=C[C@@H](CO)C3)c2n1 [abacavir] | 317% and 129%
CCCc1nn(C)c2c(=O)[nH]c(-c3cc(S(=O)(=O)N4CCN(C)CC4)ccc3OCC)nc12 | 218%
Cc1cc(O)c(C(=O)N[C@@H](C(=O)N[C@@H]2C(=O)N3C(C(=O)O)=C(CSc4nnnn4C)CS[C@H]23)c2ccc(O)cc2)cn1 [Cefpiramide] | 307%
CCCC(CCC)C(=O)O [valproic acid] | 246% and 144%
CCC(C)C(CC)C(N)=O (centres undefined) [valnoctamide] | 62.8%
CN(C)C(=O)Cn1cc(-c2nc([C@@](C)(c3ccc(-c4cnc(N)nc4)cc3)C3CC3)no2)cn1 | 226%
CC1(C)[C@@H](OC(=O)CCC(=O)O)CC[C@]2(C)[C@H]3C(=O)C=C4[C@@H]5C[C@@](C)(C(=O)O)CC[C@]5(C)CC[C@@]4(C)[C@]3(C)CC[C@@H]12 [carbenoxolone] | 256%

2 entries from above, in markdown:

| Structure (SMILES) | percent viability |
| --- | --- |
| CO[C@H]1C[C@H](O[C@H]2[C@H](C)[C@@H](O[C@@H]3O[C@H](C)C[C@H](N(C)C)[C@H]3O)[C@@H](C)C[C@@]3(CO3)C(=O)[C@H](C)[C@@H](O)[C@@H](C)[C@@H](C)OC(=O)[C@@H]2C)O[C@@H](C)[C@@H]1O [oleandomycin] | 219% |
| C[C@H]1c2cccc(O)c2C(O)=C2C(=O)[C@]3(O)C(O)=C(C(N)=O)C(=O)[C@@H](N(C)C)[C@@H]3[C@@H](O)[C@@H]21 | 124% |

(next part)

Structure (SMILES) | percent viability
C[n+]1c2cc(N)ccc2cc2ccc(N)cc21 | 49%
CCC(C)n1ncn(-c2ccc(N3CCN(c4ccc(OCC5COC(Cn6cncn6)(c6ccc(Cl)cc6Cl)O5)cc4)CC3)cc2)c1=O (centres undefined) [Itraconazole] | 189%
CN1CCc2cccc3c2[C@H]1Cc1ccc(O)c(O)c1-3 | 297%
Clc1ccc2nsnc2c1NC1=NCCN1 [Tizanidine·HCl] | 351%
CCN1CCC[C@H]1CNC(=O)c1c(O)c(Cl)cc(Cl)c1OC [S(-)-Raclopride] | 254%
C[C@H]1[C@H](NC(=O)/C(=N\OC(C)(C)C(=O)O)c2csc(N)n2)C(=O)N1S(=O)(=O)O [Azactam] | 210%
NS(=O)(=O)c1cc2c(cc1Cl)N=CNS2(=O)=O [chlorothiazide] | 193%
O=C(CCCCCCC(=O)Nc1ccccc1)NO [vorinostat] | 4.55%
Cc1[nH]c2ccccc2c1C[C@@H](NC(=O)[C@@H](N)Cc1c[nH]cn1)C(=O)N[C@@H](C)C(=O)N[C@@H](Cc1c[nH]c2ccccc12)C(=O)N[C@H](Cc1ccccc1)C(=O)N[C@@H](CCCCN)C(N)=O [examorelin] | 262%
Cc1cccc(C)c1OCC(=O)N[C@@H](Cc1ccccc1)[C@@H](O)C[C@H](Cc1ccccc1)NC(=O)[C@H](C(C)C)N1CCCNC1=O [lopinavir] | 250%
CC(C)(C)NC(=O)N[C@H](C(=O)N1C[C@H]2[C@@H]([C@H]1C(=O)NC(CC1CCC1)C(=O)C(N)=O)C2(C)C)C(C)(C)C (some centres undefined) [Boceprevir] | 51.2%
CCOC(=O)[C@H](CCc1ccccc1)N[C@@H](C)C(=O)N1Cc2ccccc2C[C@H]1C(=O)O [quinapril] | 166% and 396%
CSCCC(N)C(=O)O (centres undefined) | 251%
CCOc1ccc2ccccc2c1C(=O)N[C@@H]1C(=O)N2[C@@H]1SC(C)(C)[C@@H]2C(=O)O [nafcillin] | 116%
C/C(=N\O)C(C)NCC(C)(C)CNC(C)/C(C)=N/O (centres undefined) [exametazime] | 179%
CC(C)(S)[C@@H](N)C(=O)O [penicillamine] | 100%
O=C(O)C1CC(O)CN1 (centres undefined) [Hydroxyproline] | 300%
N=C(N)N/N=C/c1c(Cl)cccc1Cl | 200%
C/N=C(\NC)NCc1ccccc1 [betanidine] | 244%
